Data published in PMC9266425.
No constants are given. Whether binding was seen depends on the method and setting. Binding seen in cells or lysates may run through a third protein. Sequences can lack the tags named with a protein.

T1: 9Myc-tagged Dcp2 (S. cerevisiae) (UniProt P53550)
T1 sequence: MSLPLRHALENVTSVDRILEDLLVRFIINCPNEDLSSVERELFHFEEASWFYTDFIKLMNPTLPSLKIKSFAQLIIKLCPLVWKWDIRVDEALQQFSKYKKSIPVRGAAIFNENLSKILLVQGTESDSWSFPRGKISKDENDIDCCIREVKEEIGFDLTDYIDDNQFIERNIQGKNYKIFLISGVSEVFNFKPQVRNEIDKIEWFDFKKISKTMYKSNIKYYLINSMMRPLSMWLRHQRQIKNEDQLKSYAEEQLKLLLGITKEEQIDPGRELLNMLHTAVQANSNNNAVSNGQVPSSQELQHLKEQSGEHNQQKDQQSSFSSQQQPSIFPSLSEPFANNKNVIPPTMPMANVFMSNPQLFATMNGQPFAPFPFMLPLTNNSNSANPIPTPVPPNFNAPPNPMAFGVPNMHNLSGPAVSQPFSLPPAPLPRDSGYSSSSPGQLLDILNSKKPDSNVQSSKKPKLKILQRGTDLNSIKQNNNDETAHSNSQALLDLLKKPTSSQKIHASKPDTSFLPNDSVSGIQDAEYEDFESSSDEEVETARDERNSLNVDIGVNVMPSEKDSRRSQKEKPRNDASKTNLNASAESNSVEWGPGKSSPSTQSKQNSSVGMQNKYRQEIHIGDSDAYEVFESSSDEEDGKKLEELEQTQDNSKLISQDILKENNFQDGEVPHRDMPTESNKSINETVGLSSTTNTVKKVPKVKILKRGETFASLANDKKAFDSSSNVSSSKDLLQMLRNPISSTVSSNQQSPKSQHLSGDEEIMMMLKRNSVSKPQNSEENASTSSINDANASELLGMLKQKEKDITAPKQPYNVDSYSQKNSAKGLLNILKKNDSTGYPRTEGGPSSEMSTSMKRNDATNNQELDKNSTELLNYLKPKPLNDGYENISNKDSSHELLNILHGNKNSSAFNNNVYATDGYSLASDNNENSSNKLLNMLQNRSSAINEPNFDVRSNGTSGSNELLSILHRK

B1: overexpressed full-length Nst1 (protein, UniProt P53935 1-1240)
chain: MPPNSKSKRRKNKSKQHNKKNGNSDPEQSINPTQLVPRMEPELYHTESDYPTSRVIKRAPNGDVIVEPINTDDDKKERTANLTHNKDSMDSASSLAFTLDSHWESLSPEEKKTILRIEKEEVFNVIRNYQDDHSCSCSVCGRRHLAMDQEMERIYNTLYAMDKDKDPETNPIKFHLGIIKELQISKNQQQNDLSSTKGEVVKNFLSSSTVGSLKEEVLHFKQKQLSKQEQAHNETADNTSLLEENLNNIHINKTSSEISANFNSVSDEELQQKYSNFTKTFISSHPKIAEEYVQKMMMYPNIRALTDDLMNSNGQGFLNAIEDFVRDGQIQASKKDDSITEDEASSTDLTDPKEFTTMLHSGKPLTEDEYADLQRNIAERMTNAYDTASKKFKDVSQLEKELFTRFMSGRDKKSFRELIIQSFKNKFDGELGPSVLAATLSSCFSSQSKDTSLDTDSIYEDEDEEDYDDYSEYAEDSEEVSEYEGIEAVEKPEHDEKSNGIRETLHLSYDHDHKRQNHPHHHYHSTSTHSEDELSEEEYISDIELPHDPHKHFHRDDDILDGDEDEPEEEDENEGDDEEDTYDSGLDETDRLEEGRKLIQIAITKLLQSRIMASYHEKQADNNRLKLLQELEEEKRKKREKEEKKQKKREKEKEKKRLQQLAKEEEKRKREEEKERLKKELEEREMRRREAQRKKVEEAKRKKDEERKRRLEEQQRREEMQEKQRKQKEELKRKREEEKKRIREQKRLEQEKLQKEKEEEERQRLIAEDALRKQKLNEEQTSANILSAKPFTENGVGNPVSSQSHPNMTNYQEDNSCSINDEILKMVNSVAASKPVSPTGFNVHDLLLPSTNNQMPAMEQSHLPQPGNQNNHFGTTTIPNALDLATKSSLQTENNYLMNSQTLENTSLLMHNNSSPTKLLPNDFGLSSWGGLTNTMSINPTCKPPVIQTSEMESQAHKSSPQATMPSFGLPNGGTHRKSFTDELNTLTSMLSSSGFADTSLSSSGFPPSQRSVWNDQKSSFSGPSTAGNFNNSSIQSGMLLAPTLGSVESFPNRTSIWDSSTTPMMNKSELSGRNITSTAQDSPAFMASNIWSSNSQYNSPYLTSNVLQSPQISSGVDESHILDSIYNTYLAISPQDSLNPYIAIGTLFQNLVGLNLDYSTFINKLISMQGAYNCEFFTDNNGSITHVRFARQTPAGHSKGLLNQLFSGLNDPTATPFTSRPHTSTRASFPIASSTTQTS
B2: Nst1ΔPD (residues 1-630 and 753-1240) (protein, UniProt P53935)
chain: MPPNSKSKRRKNKSKQHNKKNGNSDPEQSINPTQLVPRMEPELYHTESDYPTSRVIKRAPNGDVIVEPINTDDDKKERTANLTHNKDSMDSASSLAFTLDSHWESLSPEEKKTILRIEKEEVFNVIRNYQDDHSCSCSVCGRRHLAMDQEMERIYNTLYAMDKDKDPETNPIKFHLGIIKELQISKNQQQNDLSSTKGEVVKNFLSSSTVGSLKEEVLHFKQKQLSKQEQAHNETADNTSLLEENLNNIHINKTSSEISANFNSVSDEELQQKYSNFTKTFISSHPKIAEEYVQKMMMYPNIRALTDDLMNSNGQGFLNAIEDFVRDGQIQASKKDDSITEDEASSTDLTDPKEFTTMLHSGKPLTEDEYADLQRNIAERMTNAYDTASKKFKDVSQLEKELFTRFMSGRDKKSFRELIIQSFKNKFDGELGPSVLAATLSSCFSSQSKDTSLDTDSIYEDEDEEDYDDYSEYAEDSEEVSEYEGIEAVEKPEHDEKSNGIRETLHLSYDHDHKRQNHPHHHYHSTSTHSEDELSEEEYISDIELPHDPHKHFHRDDDILDGDEDEPEEEDENEGDDEEDTYDSGLDETDRLEEGRKLIQIAITKLLQSRIMASYHEKQADNNRLKLLQELQKEKEEEERQRLIAEDALRKQKLNEEQTSANILSAKPFTENGVGNPVSSQSHPNMTNYQEDNSCSINDEILKMVNSVAASKPVSPTGFNVHDLLLPSTNNQMPAMEQSHLPQPGNQNNHFGTTTIPNALDLATKSSLQTENNYLMNSQTLENTSLLMHNNSSPTKLLPNDFGLSSWGGLTNTMSINPTCKPPVIQTSEMESQAHKSSPQATMPSFGLPNGGTHRKSFTDELNTLTSMLSSSGFADTSLSSSGFPPSQRSVWNDQKSSFSGPSTAGNFNNSSIQSGMLLAPTLGSVESFPNRTSIWDSSTTPMMNKSELSGRNITSTAQDSPAFMASNIWSSNSQYNSPYLTSNVLQSPQISSGVDESHILDSIYNTYLAISPQDSLNPYIAIGTLFQNLVGLNLDYSTFINKLISMQGAYNCEFFTDNNGSITHVRFARQTPAGHSKGLLNQLFSGLNDPTATPFTSRPHTSTRASFPIASSTTQTS
B3: Nst1CTD (C-terminal Nst1 residues 430-1240) (domain or fragment, UniProt P53935 430-1240)
chain: ELGPSVLAATLSSCFSSQSKDTSLDTDSIYEDEDEEDYDDYSEYAEDSEEVSEYEGIEAVEKPEHDEKSNGIRETLHLSYDHDHKRQNHPHHHYHSTSTHSEDELSEEEYISDIELPHDPHKHFHRDDDILDGDEDEPEEEDENEGDDEEDTYDSGLDETDRLEEGRKLIQIAITKLLQSRIMASYHEKQADNNRLKLLQELEEEKRKKREKEEKKQKKREKEKEKKRLQQLAKEEEKRKREEEKERLKKELEEREMRRREAQRKKVEEAKRKKDEERKRRLEEQQRREEMQEKQRKQKEELKRKREEEKKRIREQKRLEQEKLQKEKEEEERQRLIAEDALRKQKLNEEQTSANILSAKPFTENGVGNPVSSQSHPNMTNYQEDNSCSINDEILKMVNSVAASKPVSPTGFNVHDLLLPSTNNQMPAMEQSHLPQPGNQNNHFGTTTIPNALDLATKSSLQTENNYLMNSQTLENTSLLMHNNSSPTKLLPNDFGLSSWGGLTNTMSINPTCKPPVIQTSEMESQAHKSSPQATMPSFGLPNGGTHRKSFTDELNTLTSMLSSSGFADTSLSSSGFPPSQRSVWNDQKSSFSGPSTAGNFNNSSIQSGMLLAPTLGSVESFPNRTSIWDSSTTPMMNKSELSGRNITSTAQDSPAFMASNIWSSNSQYNSPYLTSNVLQSPQISSGVDESHILDSIYNTYLAISPQDSLNPYIAIGTLFQNLVGLNLDYSTFINKLISMQGAYNCEFFTDNNGSITHVRFARQTPAGHSKGLLNQLFSGLNDPTATPFTSRPHTSTRASFPIASSTTQTS
B4: Nst1CTDΔPD (domain or fragment, UniProt P53935)
chain: ELGPSVLAATLSSCFSSQSKDTSLDTDSIYEDEDEEDYDDYSEYAEDSEEVSEYEGIEAVEKPEHDEKSNGIRETLHLSYDHDHKRQNHPHHHYHSTSTHSEDELSEEEYISDIELPHDPHKHFHRDDDILDGDEDEPEEEDENEGDDEEDTYDSGLDETDRLEEGRKLIQIAITKLLQSRIMASYHEKQADNNRLKLLQELQKEKEEEERQRLIAEDALRKQKLNEEQTSANILSAKPFTENGVGNPVSSQSHPNMTNYQEDNSCSINDEILKMVNSVAASKPVSPTGFNVHDLLLPSTNNQMPAMEQSHLPQPGNQNNHFGTTTIPNALDLATKSSLQTENNYLMNSQTLENTSLLMHNNSSPTKLLPNDFGLSSWGGLTNTMSINPTCKPPVIQTSEMESQAHKSSPQATMPSFGLPNGGTHRKSFTDELNTLTSMLSSSGFADTSLSSSGFPPSQRSVWNDQKSSFSGPSTAGNFNNSSIQSGMLLAPTLGSVESFPNRTSIWDSSTTPMMNKSELSGRNITSTAQDSPAFMASNIWSSNSQYNSPYLTSNVLQSPQISSGVDESHILDSIYNTYLAISPQDSLNPYIAIGTLFQNLVGLNLDYSTFINKLISMQGAYNCEFFTDNNGSITHVRFARQTPAGHSKGLLNQLFSGLNDPTATPFTSRPHTSTRASFPIASSTTQTS

Molecular target: T1, 9Myc-tagged Dcp2 (S. cerevisiae)
Test: co-IP; overexpressed Nst1 and Nst1 domain deletion mutants with 9Myc-tagged Dcp2 in S. cerevisiae

binding, no binding:
B1, B2, B3, B4
